{
  "source": "patent US20210147812A1",
  "about": "“Method of Preparing Cancer Spheroid and Method of Selecting Colorectal Cancer Patient” (Kyo Diagnostics K.K., priority 2017, published 2021)",
  "key": {"[1]": {"test_system": "spheroid lines HC6T, HC9T, and HC20T", "experiment": "Drug sensitivity tests in spheroids (GEI)", "type": "cell-based", "conditions": "Homo sapiens, read-out: IC50 of spheroid growth", "experimental": "(§1) Luciferase-expressing spheroids were cultured in 2-3 wells of a 12-well cell-culture plate (in 60-90 μl Matrigel). […] From the spheroid solution thus obtained, 300 μl was taken and the cells were resuspended in an equal volume of Matrigel. The spheroid cells in Matrigel were distributed to the wells of 96-well “white” cell-culture plates (Corning; 3 μl per well) on a plate heater at 37° C., and cultured overnight in 100 μl/well of the medium. Spheroids were rinsed with 100 μl/well of PBS, and incubated with 50 μl of 150 μg/ml luciferin in phenol red-free DMEM/F12 medium (Nacalai) for 10 min at room temperature (20-28° C.). Luminescence was scored using a conventional imaging device (Gel Doc XR+, BioRad). After this initial measurement, spheroids in each well were rinsed with 100 μl of PBS, and cultured in 100 μl of the medium. Luminescence was determined on day 1 and day 3. Effects of a drug was determined by obtaining GEI (growth effect index), which is the growth rate of a group treated with the drug compared to a control group (a solvent-treated group). Results were shown using means in three independent experiments each conducted in triplicate.\nThe spheroid lines shown in Table 3 were used in this example."}, "[2]": {"test_system": "six spheroid lines that did not depend on bFGF (HC1T, HC10T, HC11T, HC73T, HC5T and HC13T)", "conditions": "clinically relevant doses (0.01-1 μM)", "experimental": "as §1"}},
  "note": "pIC50: −log10 of the molar value.",
  "data": [
    {"smiles": "COc1cc(OC)cc(N(CCNC(C)C)c2ccc3ncc(-c4cnn(C)c4)nc3c2)c1", "note": "[erdafitinib]", "values": [
      {"measurement": "pIC50", "setting": "[1]", "result": "8.51 to 8.66"},
      {"measurement": "growth inhibition", "setting": "[2]", "result": "no growth inhibition"}
    ]}
  ]
}
